Some of the results follow. These are raw signals, not scaled to a control.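 First-pass screen: polymyxin B was added at a level that permeabilizes the Salmonella outer membrane while sparing the inner membrane. DMSO wells, with and without polymyxin B, defined maximum growth. Because plates differed from one another, each plate's data were ranked separately and the compounds with the lowest OD600 were carried forward as hits.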
System: Salmonella enterica serovar Typhimurium SL1344
Assay: bacterial growth OD600 after 18 h with compound and polymyxin B; higher = more bacterial growth (less inhibition)
Conditions: 50 µM, Mueller-Hinton broth

SMILES	bacterial growth OD600 (polymyxin B 1 µg/mL)	bacterial growth OD600 (polymyxin B 0.75 µg/mL)
O=C1CCC(C(=O)N2CCSCC2)CN1CCCc1ccccc1 (stereo not given)	0.943	–
COc1cc(OC)c2nc(-c3cc4c(c(OC)c3)OCCN(C(=O)c3cccc(N5CCNC5=O)c3)C4)cc(C)c2c1	–	0.855
CN(CCCCN1CCOCC1)C(=O)c1ccc2nc(Cc3ccccc3F)oc2c1	0.908	–
O=C(CC1C(=O)NCCN1Cc1cccs1)NCCCc1ccccc1 (stereo not given)	–	0.993
Cc1cc(CN(C)c2ccc(-c3nc(COc4ccccc4)no3)cn2)on1	0.805	–
O=C(Cc1ccc(N2CCC(NCc3scnc3-c3ccccc3)CC2)cc1)NCc1ccccn1	–	1.01
CCN(C)c1nc2nonc2nc1NC1CCCC1	0.945	–
O=C(Nc1ccc(N2CCC(NCC3COc4ccccc4O3)CC2)cc1)C1CCCC1 (stereo not given)	–	0.482
CC(=O)Nc1cc(C(=O)NCCCn2nnc3ccccc32)c2c(c1)nc(C)n2Cc1ccccc1	–	1.02
CC(C)N1CCC(N2CCCC(C(=O)N3CC=C(c4ccccc4)CC3)C2)CC1 (stereo not given)	–	0.815
O=C(c1ccc(NC2CCCC2)nc1)N1CCCN(c2ncccn2)CC1	–	0.818
O=C(c1csc2nc(-c3cccc(F)c3)cn12)N1CCCCCC1	0.739	–
Cc1nonc1CN(C)C(=O)CC(c1ccccc1)c1ccccc1Cl (stereo not given)	0.011	–
O=C(c1cccc(F)c1)N(Cc1ccncc1)Cc1cccc(OCCc2ccc(F)cc2)c1	–	-0.006
COc1ccc2cc(C(=O)C3CCCN(Cc4csc(C(C)=O)c4)C3)ccc2c1 (stereo not given)	0.747	–
COc1ccc(CCC(=O)N2CCc3c(cnc(C)c3CNC(=O)c3ccc4c(c3)OCO4)C2)cc1	–	0.806
COc1cccc(NC(=O)CCC2CCN(Cc3ccc(F)c(OC)c3)CC2)c1	0.831	–
Cc1nc(CN2CCN(c3nc4nonc4nc3N3CCCCC3)CC2)cs1	–	0.699
CC#CCN1C(=O)NC(CCCc2ccccc2)(C2CCN(C(=O)/C=C/c3ccccc3)CC2)C1=O (stereo not given)	–	-0.003
CCOC(=O)CNC(=O)N1C[C@H]2OC(=O)N(CCc3ccc(F)cc3)[C@H]2C1	0.885	–

2 compounds drawn at random from the list so far, as already listed:
SMILES	bacterial growth OD600 (polymyxin B 1 µg/mL)	bacterial growth OD600 (polymyxin B 0.75 µg/mL)
COc1cccc(NC(=O)CCC2CCN(Cc3ccc(F)c(OC)c3)CC2)c1	0.831	–
CCN(C)c1nc2nonc2nc1NC1CCCC1	0.945	–

Source: the supplement of paper PMC12889115
